Experimental data: PubChem BioAssay AID504808 (Drosophila RNAi Screening Center, 2011)
In all, the deposit lists about 21,000 reagents; below is a random part of those with a known target gene and a result. In the full data, 18 (0.084%) got an active call. 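Raw counts without plate normalisation, one of two replicates; the ratio scores behind the calls were not deposited.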 A plus sign joins genes that one reagent is predicted to hit. Not stated in the record: the amount of reagent, the time to read-out.

Assay: 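Fly genes required to hold E2F transcription in check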 (primary screen)
Cells: Drosophila S2 cells
Reagents: long dsRNA against Drosophila genes
Measured: 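Firefly luciferase driven by E2F sites, normalised to Renilla luciferase on the same minimal promoter, measured by plate reader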
Scale: E2F firefly: higher = more E2F reporter activity; Renilla normaliser: higher = more normaliser reporter signal
Call rule: 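Called active if the normalised E2F reporter went up by over 50%; the cutoff is arbitrary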

target | dsRNA | E2F firefly, rep 1 | Renilla normaliser, rep 1 | activity call
CG11854 | DRSC14409 | 1.08e5 | 5509 | inactive
SmydA-6 (SET and MYND domain containing, arthropod-specific, member 6) | DRSC07341 | 1.44e5 | 5218 | inactive
CG9951 | DRSC11105 | 77161 | 3202 | inactive
Jon25Bi (Jonah 25Bi) | DRSC03434 | 1.44e5 | 5071 | inactive
CG15293 | DRSC01919 | 96972 | 3944 | inactive
CG34454 | DRSC07864 | 1.25e5 | 3774 | inactive
AstC-R1 (Allatostatin C receptor 1) | DRSC10799 | 1.61e5 | 7421 | inactive
promL (prominin-like) | DRSC08733 | 75053 | 4205 | inactive
xit (xiantuan) | DRSC18364 | 8107 | 760 | inactive
CDK2AP1 (CDK2-associated protein 1) | DRSC19800 | 7323 | 772 | inactive
Parg (Poly(ADP-ribose) glycohydrolase) | DRSC18696 | 1899 | 1064 | inactive
Rbbp5 + CG6434 (retired record) | DRSC10635 | 1.28e5 | 6309 | inactive
spz3 (spatzle 3) | DRSC02391 | 1.56e5 | 4939 | inactive
spz3 (spatzle 3) | DRSC03008 | 1.54e5 | 4869 | inactive
shg (shotgun) | DRSC04714 | 71077 | 3603 | inactive
Ada2b (transcriptional Adaptor 2b) | DRSC16531 | 1.19e5 | 7254 | inactive
DCTN6-p27 (Dynactin 6, p27 subunit) | DRSC02609 | 1.02e5 | 4226 | inactive
Prosbeta5 (Proteasome beta5 subunit) | DRSC07517 | 1.08e5 | 5455 | inactive
Xxylt (Xyloside xylosyltransferase) | DRSC04107 | 77741 | 3144 | inactive
CG33337 | DRSC13632 | 81230 | 2657 | inactive
Arl6IP1 (ADP-ribosylation factor-like 6 interacting protein 1) | DRSC14231 | 1.11e5 | 5799 | inactive
Trf4-1 (Topoisomerase related function 4-1) | DRSC17775 | 1.14e5 | 5299 | inactive
Ziz (Zizimin) | DRSC02506 | 1.47e5 | 5006 | inactive
Ziz (Zizimin) | DRSC02976 | 1.58e5 | 5176 | inactive
Rcd1 (Reduction in Cnn dots 1) | DRSC07116 | 3789 | 242 | inactive
Mt2 (Methyltransferase 2) | DRSC03374 | 1.11e5 | 4224 | inactive
Blos2 | DRSC10147 | 69462 | 3214 | inactive
Rilpl (Rab interacting lysosomal protein like) | DRSC18494 | 1932 | 1032 | inactive
CG9839 | DRSC16574 | 70217 | 3242 | inactive
CG7183 | DRSC16210 | 71608 | 3492 | inactive
loh (lonely heart) | DRSC01122 | 1.43e5 | 5981 | inactive
loh (lonely heart) | DRSC02943 | 1.36e5 | 4495 | inactive
CG34022 (retired record) | DRSC07949 | 1.40e5 | 4438 | inactive
MP1 (Melanization Protease 1) | DRSC12124 | 67169 | 3453 | inactive
CG32264 | DRSC08061 | 93301 | 3568 | inactive
CG32264 | DRSC08167 | 91214 | 4307 | inactive
CG32264 | DRSC08169 | 73545 | 3785 | inactive
CG32264 | DRSC08285 | 98012 | 4479 | inactive
CG32264 | DRSC08437 | 82258 | 3338 | inactive
PGRP-SC1b (Peptidoglycan recognition protein SC1b) | DRSC07215 | 3168 | 198 | inactive
CG10730 | DRSC02102 | 95336 | 4631 | inactive
p38b (p38b MAP kinase) | DRSC03586 | 1.05e5 | 4070 | inactive
CG18568 | DRSC06768 | 3237 | 205 | inactive
CG9986 | DRSC16586 | 1701 | 1004 | inactive
CG32633 | DRSC18987 | 84875 | 2608 | inactive
CG8119 | DRSC20083 | 2.03e5 | 9100 | inactive
vex (vexed) | DRSC19481 | 1.22e5 | 6302 | inactive
vex (vexed) | DRSC19651 | 1.34e5 | 6446 | inactive
GCC185 (GRIP and coiled-coil domain containing 185 kDa) | DRSC15493 | 1.13e5 | 5212 | inactive
CG2816 | DRSC00539 | 1.65e5 | 5327 | inactive
CG14711 + Zaf1 | DRSC14934 | 1.59e5 | 7328 | inactive
CG3270 | DRSC04988 | 76784 | 3395 | inactive
mRpL33 (mitochondrial ribosomal protein L33) | DRSC18319 | 1.05e5 | 5047 | inactive
CG1888 | DRSC06797 | 1.60e5 | 5967 | inactive
CG17751 | DRSC15261 | 1.45e5 | 8678 | inactive

Targets above whose gene name starts with A or a:
target | dsRNA | E2F firefly, rep 1 | Renilla normaliser, rep 1 | activity call
AstC-R1 (Allatostatin C receptor 1) | DRSC10799 | 1.61e5 | 7421 | inactive
Ada2b (transcriptional Adaptor 2b) | DRSC16531 | 1.19e5 | 7254 | inactive
Arl6IP1 (ADP-ribosylation factor-like 6 interacting protein 1) | DRSC14231 | 1.11e5 | 5799 | inactive

Continued:
target | dsRNA | E2F firefly, rep 1 | Renilla normaliser, rep 1 | activity call
Saf-B (Scaffold attachment factor B) | DRSC16167 | 74148 | 3873 | inactive
ss (spineless) | DRSC17069 | 1.28e5 | 6836 | inactive
Pglym78 (Phosphoglyceromutase 78) | DRSC16787 | 1915 | 1124 | inactive
CG15646 | DRSC19682 | 2.03e5 | 6311 | inactive
Elo68beta (Elongase 68beta) | DRSC09860 | 1.21e5 | 6471 | inactive
bor (belphegor) | DRSC16915 | 1.05e5 | 7116 | inactive
CG32695 | DRSC17975 | 1.14e5 | 5455 | inactive
CG7755 | DRSC07040 | 1.48e5 | 5249 | inactive
snoRNA:U31:54Ec + snoRNA:snR38:54Eb + snoRNA:U27:54Eb + 8 more | DRSC06458 | 1.51e5 | 4733 | inactive
CG9609 | DRSC20199 | 1.76e5 | 6018 | inactive
Ag5r2 (Antigen 5-related 2) | DRSC19328 | 1.46e5 | 5710 | inactive
CG15570 | DRSC18058 | 1.10e5 | 5934 | inactive
Acn (Acinus) | DRSC02062 | 82587 | 3693 | inactive
kz (kurz) | DRSC18786 | 1.05e5 | 5659 | inactive
comr (cookie monster) | DRSC04138 | 1.02e5 | 4689 | inactive
CG34174 | DRSC00101 | 1.48e5 | 5602 | inactive
14-3-3zeta | DRSC05028 | 3425 | 295 | inactive
CG33177 | DRSC19949 | 1.40e5 | 6271 | inactive
Vha100-5 (Vacuolar H[+] ATPase 100kD subunit 5) | DRSC02175 | 1.36e5 | 4870 | inactive
acs (arcus) | DRSC08185 | 96584 | 4031 | inactive
Gprk2 (G protein-coupled receptor kinase 2) | DRSC16682 | 1197 | 856 | inactive
cindr (CIN85 and CD2AP related) | DRSC14126 | 1919 | 864 | inactive
cindr (CIN85 and CD2AP related) | DRSC14298 | 1.00e5 | 5878 | inactive
cad (caudal) | DRSC03502 | 78225 | 3951 | inactive
CG34305 | DRSC11995 | 81000 | 3765 | inactive
CG5866 | DRSC15900 | 97250 | 6111 | inactive
CG31659 | DRSC00760 | 1.58e5 | 5955 | inactive
Srrm234 (Serine-arginine repetitive matrix 2/3/4) | DRSC07955 | 1.31e5 | 3984 | inactive
Srrm234 (Serine-arginine repetitive matrix 2/3/4) | DRSC08606 | 68859 | 3454 | inactive
